Experimental data taken from US20260014278A1, “HYBRID PEPTIDE DENDRIMER SYSTEMS AND EXTRAHEPATIC DELIVERY” (NUNTIUS THERAPEUTICS LIMITED, priority 2022, published 2026).
Some entries share one result that the patent states for a list of compounds.

Experiment: Dynamic light scattering: hydrodynamic size and polydispersity index (PDI) of nanoparticles
Type: physicochemical
Conditions: peptide dendrimer, lipid and mRNA complexes; N:P 8:1, DOTMA/DOPE w/w 10:1 to mRNA; listed as G1-LRLR
Experimental: The hydrodynamic size was measured using the dynamic light scattering (DLS) technique. DLS is a very sensitive, non-invasive method to measure size and size distribution of nanoparticles in a liquid. […] Analysing these intensity fluctuations allows us to calculate the velocity of the Brownian motion. The size of the nanoparticles can be determined by using the Stokes-Einstein relationship. With the latest technology, it can measure nanoparticles smaller than 1 nm.
PDI is used to estimate the average uniformity of a particle solution, The method of cumulants is a standard technique for analysing DLS data on sample polydispersity. PDI is a number calculated from a 2 parameter fit to the correlation data (the cumulants analysis). The cumulants analysis is used to evaluate the autocorrelation function generated by a DLS experiment. […]
Size, zeta potential and polydispersity index (PDI) measurement: The hydrodynamic size was measured using the dynamic light scattering (DLS) technique using the Zetasizer Advance Series—Pro (Malvern Panalytical Ltd, Malvern, UK) according to the manufacturer's instructions. […] The size of the nanoparticles can be determined by using the Stokes-Einstein relationship. […]
The data obtained with DLS measurements can also be used to calculate the PDI of particle in solution. […] PDI is a number calculated from a 2 parameter fit to the correlation data (the cumulants analysis). […]

## (LRLR)2KGSC-NH2 [GSCG1-LRLR]
  Polydispersity Index (PDI): greater than 0.35
